Values from PubChem BioAssay AID686938 (Drosophila RNAi Screening Center, 2013)
Aim: 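Knock-downs reducing store-operated calcium influx in Drosophila cells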 (primary screen). Cell system: Drosophila S2R+ cells. Reagents: long dsRNA against Drosophila genes, about 0.25 µg dsRNA per well, roughly 10,000 cells. Time to read-out: 5 days of knock-down before the calcium assay. Treatment: thapsigargin (SERCA pump blocker) to empty calcium stores; entry signal taken 4 min after adding it. Read-out: 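Per-well fluo-4 fluorescence in two replicates, unnormalised, measured in resting cells and 4 min after store depletion by the SERCA blocker thapsigargin; ratio of the two present in few wells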. Reading the numbers: calcium entry signal: higher = stronger calcium signal after store depletion; entry to resting ratio: higher = more calcium entry relative to resting level; resting calcium signal: higher = higher resting calcium signal. Active means: 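Called when the plate z-score of the entry-to-rest ratio, mean of duplicates, falls below −3; wells with low overall dye signal (Fmax z below −2) or more than five off-targets excluded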. Meaning of the calls: active = strongly reduced calcium entry; inactive = no strong reduction.
In all, the deposit lists about 23,000 reagents; this is a random part of those with a known target gene and a result. Over the whole deposit, 75 (0.33%) got an active call. 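Raw plate signals without normalisation; calls rest on plate z-scores that were not deposited; ratio present for only 364 wells.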 The numbers tell different reagents against one gene apart. A plus sign joins genes that one reagent is predicted to hit. Not stated in the record: the dose of the treatment.

gene knocked down | dsRNA no. | calcium entry signal, replicate 1 (fluorescence units) | calcium entry signal, replicate 2 (fluorescence units) | entry to resting ratio | resting calcium signal, replicate 1 (fluorescence units) | resting calcium signal, replicate 2 (fluorescence units) | Outcome
Slip1 (GeneID 43809) | 1 | 4.98e7 | 4.51e7 | – | 2.25e7 | 2.10e7 | inactive
natalisin (GeneID 5740700) | 1 | 2.33e7 | 2.76e7 | – | 1.31e7 | 2.92e7 | inactive
natalisin (GeneID 5740700) | 2 | 2.59e7 | 3.09e7 | – | 1.33e7 | 5.26e7 | inactive
CG13693 (GeneID 33187) | 1 | 3.94e7 | 4.12e7 | – | 1.67e7 | 1.63e7 | inactive
mago (GeneID 37402) | 1 | 6.01e7 | 5.37e7 | – | 2.42e7 | 2.11e7 | inactive
CG40498 (GeneID 3354890) | 1 | 3.69e7 | 3.84e7 | – | 1.64e7 | 2.16e7 | inactive
hpRNA:CR18854 + IP3K1 | 1 | 5.90e7 | – | – | 2.55e7 | – | inactive
dysf (GeneID 43174) | 1 | 3.61e7 | 4.98e7 | – | 1.92e7 | 2.06e7 | inactive
dysf (GeneID 43174) | 2 | 3.39e7 | 5.26e7 | – | 1.95e7 | 2.30e7 | inactive
dysf (GeneID 43174) | 3 | 2.99e7 | 4.63e7 | – | 1.63e7 | 2.04e7 | inactive
dysf (GeneID 43174) | 4 | 3.16e7 | 4.13e7 | – | 1.93e7 | 2.15e7 | inactive
shg (GeneID 37386) | 1 | 3.95e7 | – | – | 1.89e7 | – | inactive
Lamtor3 (GeneID 35055) | 1 | 5.15e7 | 3.33e7 | – | 2.35e7 | 1.64e7 | inactive
nrv2 (GeneID 33953) | 1 | 3.52e7 | 3.79e7 | – | 2.07e7 | 1.80e7 | inactive
nrv2 (GeneID 33953) | 2 | 3.42e7 | – | – | 1.80e7 | – | inactive
CG42397 (GeneID 8673976) | 1 | 4.65e7 | 4.86e7 | – | 2.63e7 | 2.08e7 | inactive
CG43394 (GeneID 318843) | 1 | 4.18e7 | 4.18e7 | – | 2.04e7 | 1.96e7 | inactive
CG43394 (GeneID 318843) | 2 | 4.51e7 | 3.29e7 | – | 2.24e7 | 1.45e7 | inactive
CG15278 (GeneID 34865) | 1 | 3.36e7 | 2.12e7 | – | 1.58e7 | 1.04e7 | inactive
lov (GeneID 38007) | 1 | 2.82e7 | 3.09e7 | – | 1.45e7 | 1.60e7 | inactive
Pof (GeneID 37947) | 1 | 4.54e7 | – | – | 2.33e7 | – | inactive
CG14856 (GeneID 41790) | 1 | 3.04e7 | 5.65e7 | – | 1.57e7 | 5.95e7 | inactive
cv-d (GeneID 41921) | 1 | 2.12e7 | 2.10e7 | – | 1.11e7 | 1.00e7 | inactive
cv-d (GeneID 41921) | 2 | 2.84e7 | 4.82e7 | – | 1.44e7 | 5.59e7 | inactive
cv-d (GeneID 41921) | 3 | 3.69e7 | 5.15e7 | – | 1.74e7 | 6.40e7 | inactive
alphaCOP (GeneID 38199) | 1 | 2.29e7 | 2.46e7 | – | 1.67e7 | 1.74e7 | inactive
CG8673 (GeneID 34105) | 1 | 2.68e7 | 4.74e7 | – | 1.37e7 | 2.07e7 | inactive
Gr64b + Gr64c | 1 | 3.55e7 | 4.10e7 | – | 1.81e7 | 1.70e7 | inactive
Gr64b + Gr64c | 2 | 4.51e7 | 4.44e7 | – | 2.07e7 | 1.94e7 | inactive
CG6324 (GeneID 32481) | 1 | 3.10e7 | 2.64e7 | – | 1.65e7 | 1.20e7 | inactive
CG11470 (GeneID 43480) | 1 | 3.15e7 | 4.39e7 | – | 1.62e7 | 2.04e7 | inactive
CG17490 (GeneID 3355125) | 1 | 2.27e7 | 4.82e7 | – | 1.18e7 | 1.99e7 | inactive
CG17490 (GeneID 3355125) | 2 | 5.47e7 | 5.49e7 | – | 2.77e7 | 2.28e7 | inactive
CG32756 (GeneID 318193) | 1 | 4.29e7 | 3.42e7 | – | 2.36e7 | 1.41e7 | inactive
CG32756 (GeneID 318193) | 2 | 4.86e7 | 3.57e7 | – | 2.51e7 | 1.48e7 | inactive
Uba2 (GeneID 44496) | 1 | 2.98e7 | 2.80e7 | – | 1.58e7 | 1.47e7 | inactive
Cog3 (GeneID 33562) | 1 | 4.20e7 | – | – | 2.25e7 | – | inactive
esc (GeneID 34595) | 1 | 4.46e7 | – | – | 2.13e7 | – | inactive
Nepl20 (GeneID 43412) | 1 | 3.67e7 | 6.33e7 | – | 1.91e7 | 2.63e7 | inactive
GstD6 (GeneID 48339) | 1 | 2.99e7 | 2.83e7 | – | 1.51e7 | 1.57e7 | inactive
ND1 (retired record) (GeneID 192473) | 1 | 3.60e7 | 4.63e7 | – | 2.07e7 | 1.73e7 | inactive
su(Hw) (GeneID 41740) | 1 | 2.95e7 | 3.13e7 | – | 1.47e7 | 1.59e7 | inactive
Dsp1 (GeneID 117294) | 1 | 1.39e7 | 1.41e7 | – | 9.80e6 | 9.16e6 | inactive
Dsp1 (GeneID 117294) | 2 | 6.02e7 | 2.84e7 | – | 2.94e7 | 1.15e7 | inactive
Jon66Cii (GeneID 38953) | 1 | 2.32e7 | 3.26e7 | – | 1.16e7 | 1.45e7 | inactive
CG4991 (GeneID 32695) | 1 | 3.68e7 | 4.14e7 | – | 1.68e7 | 1.84e7 | inactive
lncRNA:sphinx + ATPsynF | 1 | 2.20e7 | 4.15e7 | – | 1.82e7 | 1.63e7 | inactive
C3G (GeneID 31618) | 1 | 3.13e7 | 3.55e7 | – | 1.43e7 | 1.51e7 | inactive
C3G (GeneID 31618) | 2 | 3.58e7 | 4.62e7 | – | 1.63e7 | 1.93e7 | inactive
C3G (GeneID 31618) | 3 | 3.89e7 | 4.30e7 | – | 1.90e7 | 2.27e7 | inactive
C3G (GeneID 31618) | 4 | 5.73e7 | 2.51e7 | – | 2.69e7 | 1.06e7 | inactive
CG8051 (GeneID 32925) | 1 | 4.84e7 | 4.68e7 | – | 2.50e7 | 2.13e7 | inactive
CG31998 (GeneID 43774) | 1 | 3.84e7 | 3.57e7 | – | 1.80e7 | 1.73e7 | inactive
CG31998 (GeneID 43774) | 2 | 3.89e7 | 5.66e7 | 2 | 1.94e7 | 2.28e7 | inactive
cN-IIIB (GeneID 37875) | 1 | 4.16e7 | – | – | 2.12e7 | – | inactive
CG46339 (GeneID 44359) | 1 | 3.88e7 | 4.48e7 | – | 1.72e7 | 2.14e7 | inactive
CG8372 (GeneID 34121) | 1 | 4.26e7 | – | – | 2.76e7 | – | inactive
Rcd7 (GeneID 40126) | 1 | 3.13e7 | 4.72e7 | – | 1.47e7 | 2.10e7 | inactive
